We go through 26 sequences from the supplement of paper PMC10338343.

± gives the standard deviation. This is a selection; strong and weak results do not stand in their true shares. Many of these values have a large error.

In one experiment the test system is MILI (PIWIL2) piRISC loaded with L1MC piRNA (26 nt). Description: pre-steady-state target cleavage rate (min^-1); MIWI and MILI are mouse PIWI proteins and EfPiwi is from a freshwater sponge; tags in brackets are library labels; higher = faster piRNA-guided slicing of the target. As to conditions: guide: L1MC piRNA 5'p-UAACUAAAUACUAUGCAAGCUGUAGG; auxiliary factor: 500 nM mouse GTSF1. Here is the method:
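Cleave-'n-Seq: a library of target RNAs (target site embedded in constant flanks, ACAGCATTCCGCGTTAGTGATATCCG... 5' flank; DNA-blocked outside the site) at 0.1 nM was incubated with 1 nM active mouse MILI or MIWI piRISC (synthetic 5'-monophosphorylated piRNA guide) with or without 500 nM mouse GTSF1 at 33 °C for 1 min to 16 h. Uncleaved targets were sequenced and normalised to non-target controls, and the pooled three trials were fitted to a burst-and-steady-state model to give the pre-steady-state cleavage rate (min^-1; k3 is constrained to at most 1e-4). Sequence is the target site only; target names encode pairing extent (gX:gY) and contiguous / 1-mismatch / 2-mismatch / bulge geometry. Fits with R² ≤ 0 are excluded.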
Turning to UCCUGGAUGUCGUUGCAUAGGAUUUAGUUA, the “pre-steady-state target cleavage rate” value came out at 0.00141 ± 0.0058.
The same measure, in the same setting: for UCCUGGAUGUCCUUGCAUACGUAUUUAGUUA the value was 0.00229 ± 0.0058; for UCCUGGAUGAGCUUGCAUAGUAUUUUGAAA, 0.0223 ± 0.0096.
Same read-out and setting: the figure for UCCUGGAUGUCGAUAGCAUAGUAUUUAGUUA is 0.0459 ± 0.014; for UCCUGGAUGUGCUUGCAUAGAAUUUAGUUA it is 0.0203 ± 0.0071; for UCCUGGAACAGCGUGCAUAGUAUUUAGUUA it is 0.282 ± 0.017.
Still for that read-out and setting: for UCCUGGAUGUGCUUGCAUAGGAUUUAGUUA the value was 0.0028 ± 0.0045; for UCCUGGUACAGCUUGCAUUGUAUUUAGUUA, 0.171 ± 0.017; for UCCUGCAACAGCUUGCUUAGUAUUUAGUUA, 0.293 ± 0.016.
With UCCUGGAACAGCUUGCACAGUAUUUAGUUA, the “pre-steady-state target cleavage rate” value is 0.169 ± 0.014.
For UCCUGGAUGUCGUACGAUAGUAUUUAGUUA, the “pre-steady-state target cleavage rate” value worked out at 0.00104 ± 0.0075.
On the same count and under the same terms, for UCCUCCUACAGCUUGCAUAGAAUUUAGAUA the value was 0.0558 ± 0.014; for UCCUGGAUGUGCUUCGUUAGUAUUUAGUUA, 0.00476 ± 0.0034.
As for UCCUGCUACAGCUUGCAAUCUAUUUAGUUA, the “pre-steady-state target cleavage rate” value turned out to be 0.0303 ± 0.0068.
On the same count and under the same terms, for UCCUGGAUGUCGAAGCCAUAGUAUUUAGUUA the value was 0.00267 ± 0.0036; for UCCUGCUACAGCUUGUAUAGUAUUUAGUUA, 0.255 ± 0.015.

Staying with this experiment, now noted: guide: L1MC piRNA 5'p-UAACUAAAUACUAUGCAAGCUGUAGG; auxiliary factor: none (no GTSF1).
On to UCCUGGAUCACGAUGCAUAGUAUUUAGAAA, for which the “pre-steady-state target cleavage rate” value worked out at 0.0017 ± 0.0043.
The same measure, in the same setting: the figure for UCCUGGAUGUCGUUGCAUAGGAUUUAGUUA is 0.000965 ± 0.0068; for UCCUGGAUGUCCUUGCAUACGUAUUUAGUUA it is 0.00158 ± 0.0047; for UCCUGGAUGAGCUUGCAUAGUAUUUUGAAA it is 0.00108 ± 0.006.
Still for that read-out and setting: for UCCUGGAUGUCGAUAGCAUAGUAUUUAGUUA the value was 0.00341 ± 0.0026.
Still for that read-out and setting: the figure for UCCUGGAUGUGCUUGCAUAGAAUUUAGUUA is 0.00245 ± 0.0026; for UCCUGGAUGUGCUUGCAUGUAUUUAGUUA it is 0.00161 ± 0.0044.
For the sequence UCCUGGAUGUGCUUGCAUAGGAUUUAGUUA, the “pre-steady-state target cleavage rate” value was 0.00188 ± 0.0037.
Regarding UCCUGGUACAGCUUGGAUAGUAUUUAGUAA, the “pre-steady-state target cleavage rate” value came to 0.00278 ± 0.003.
The same measure, in the same setting: for UCCUCCUACAGCUUGCAUAGUAUUAAGAAA the value was 0.00143 ± 0.0042; for UCCUGGUACAGCUUGCAUUGUAUUUAGUUA, 0.0101 ± 0.0041; for UCCUGCAACAGCUUGCUUAGUAUUUAGUUA, 0.00661 ± 0.0026.
Same read-out and setting: for UCCUGGAACAGCUUGCACAGUAUUUAGUUA the value was 0.0128 ± 0.003; for UCCUGGAUCACCUUGCAUAGUAUUUAGAUA, 0.00256 ± 0.0028.
Still for that read-out and setting: for UCCUCCUACAGCUUGCAUAGAAUUUAGAUA the value was 0.00111 ± 0.004; for UCCUGGAUGUGCUUCGUUAGUAUUUAGUUA, 0.00211 ± 0.0039; for UCCUGGAUGACCUUGCAUAGUAUUUACAAA, 0.00132 ± 0.0077.
For the sequence UCCUGCUACAGCUUGCAAUCUAUUUAGUUA, the “pre-steady-state target cleavage rate” value was 0.00243 ± 0.0019.
Still for that read-out and setting: for UCCUGGAUGUCGAAGCCAUAGUAUUUAGUUA the value was 0.000591 ± 0.0087.
The same measure, in the same setting: the figure for UCCUGCUAGAGCUUGCAUAGUUUUUAGUUA is 0.00223 ± 0.0028.
Still for that read-out and setting: for UCCUGGAUGUGCAACCAUAGUAUUUAGUUA the value was 0.00161 ± 0.0039; for UCCUGGAUGUGCAAGCAUAGUAUUUAGUAA, 0.00263 ± 0.0029.
With UCCUGGAUGUGCUACCAUAGUAUUUAGAAA, the “pre-steady-state target cleavage rate” value turned out to be 0.000289 ± 0.014.
Still for that read-out and setting: the figure for UCCUGCUACAGCUUGUAUAGUAUUUAGUUA is 0.00693 ± 0.0021.
